These are yes or no findings as the source states them, for the method shown. Some binding calls cover weakened binding; strength is not graded here.

Experimental findings from US20030223992A1 (SCHERING, published 2003) are described below.

This test has as its target T1, Human SP9155 receptor (human, UniProt Q96P65 1-431).
T1 sequence: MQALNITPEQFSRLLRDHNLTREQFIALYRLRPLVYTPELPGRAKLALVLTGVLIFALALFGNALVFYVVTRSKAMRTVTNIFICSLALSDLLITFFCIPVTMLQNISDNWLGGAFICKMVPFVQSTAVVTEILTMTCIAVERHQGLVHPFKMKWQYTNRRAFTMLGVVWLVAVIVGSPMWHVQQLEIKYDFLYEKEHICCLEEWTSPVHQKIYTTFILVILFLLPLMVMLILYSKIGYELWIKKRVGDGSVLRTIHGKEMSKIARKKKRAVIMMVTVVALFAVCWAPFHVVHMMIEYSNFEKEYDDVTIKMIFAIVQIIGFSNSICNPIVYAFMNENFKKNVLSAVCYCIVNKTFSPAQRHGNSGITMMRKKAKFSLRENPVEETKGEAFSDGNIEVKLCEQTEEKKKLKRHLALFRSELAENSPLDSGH
As to the kind of experiment: FLIPR Ca2+ flux on HEK293 cells transfected with SP9155 receptor (ligand status inferred from a functional assay).

B1: Human P518 (peptide)
peptide: TSGPLGNLAEELNGYSRKKGGFSFRF
modifications: C-terminal amide
With B1, the binding result is reported as “binds”.

B2: Human P517 (peptide)
peptide: KKGGFSFRF
modifications: C-terminal amide
B2: the binding result was “binds”.

B3: Human P52 (peptide)
peptide: GGFSFRF
modifications: C-terminal amide
B3: the binding entry is listed as “binds”.

B4: Human P513 (peptide)
peptide: KGGFSFRF
modifications: C-terminal amide
Turning to B4, the binding entry is reported as “binds”.

B5: Human P51 (peptide)
peptide: EHAGCRFRF
modifications: C-terminal amide
Take B5: the binding entry is reported as “binds”.
